Results are given in words; binding and its absence hold for the method and conditions named. Some entries that bind do so weakly or less than the wild type.
Molecular target: neuropilin-1 (NRP1) on the cells of fig. S2 (UniProt O14786)
Assay: binding of peptide-coated silver nanoparticles to cells; 80-nm silver nanoparticles (AgNP) coated with RPARPAROH added to cells, with mAb3 or mAb2; cells not named in the text shown; only the binder purified

Amino acid sequences for entries named in this document (tags omitted). Residues count along the entry.
UniProt O14786, residues 22-923: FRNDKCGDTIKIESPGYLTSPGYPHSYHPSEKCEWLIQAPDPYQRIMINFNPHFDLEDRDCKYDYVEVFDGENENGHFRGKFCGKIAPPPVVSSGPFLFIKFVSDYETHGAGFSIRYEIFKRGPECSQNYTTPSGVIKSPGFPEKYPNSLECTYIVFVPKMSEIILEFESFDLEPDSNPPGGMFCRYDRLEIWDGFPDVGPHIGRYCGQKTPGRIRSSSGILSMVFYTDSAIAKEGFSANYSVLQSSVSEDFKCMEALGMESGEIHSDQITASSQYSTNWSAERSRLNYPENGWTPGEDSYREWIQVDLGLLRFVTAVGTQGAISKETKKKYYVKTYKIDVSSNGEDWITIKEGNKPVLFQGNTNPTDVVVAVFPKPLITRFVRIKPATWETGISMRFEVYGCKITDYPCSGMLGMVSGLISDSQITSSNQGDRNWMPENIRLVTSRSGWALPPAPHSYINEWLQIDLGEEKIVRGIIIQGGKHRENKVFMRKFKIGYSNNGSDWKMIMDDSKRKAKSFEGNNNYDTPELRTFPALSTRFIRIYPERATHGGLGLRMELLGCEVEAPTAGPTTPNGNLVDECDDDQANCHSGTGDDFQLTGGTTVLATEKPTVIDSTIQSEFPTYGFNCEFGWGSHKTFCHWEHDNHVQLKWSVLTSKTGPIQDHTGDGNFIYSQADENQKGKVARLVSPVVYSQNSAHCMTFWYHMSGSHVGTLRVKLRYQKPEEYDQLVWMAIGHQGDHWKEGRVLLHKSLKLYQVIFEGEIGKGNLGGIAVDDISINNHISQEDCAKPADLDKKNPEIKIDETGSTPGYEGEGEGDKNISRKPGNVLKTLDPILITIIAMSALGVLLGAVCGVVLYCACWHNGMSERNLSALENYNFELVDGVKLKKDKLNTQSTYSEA

Question: With RPARPAR [prototypic NRP1-binding CendR peptide RPARPAROH] as the binder, how does the binding read?
Answer: The binding was “binds”.
